# From PubChem BioAssay (EPA / NIEHS)
# By UniProt entry, the sequences of proteins in these tests, tags left out. Where a name states a change or a piece, a line headed by the entry shows the natural chain unless it says otherwise.
# UniProt P19490: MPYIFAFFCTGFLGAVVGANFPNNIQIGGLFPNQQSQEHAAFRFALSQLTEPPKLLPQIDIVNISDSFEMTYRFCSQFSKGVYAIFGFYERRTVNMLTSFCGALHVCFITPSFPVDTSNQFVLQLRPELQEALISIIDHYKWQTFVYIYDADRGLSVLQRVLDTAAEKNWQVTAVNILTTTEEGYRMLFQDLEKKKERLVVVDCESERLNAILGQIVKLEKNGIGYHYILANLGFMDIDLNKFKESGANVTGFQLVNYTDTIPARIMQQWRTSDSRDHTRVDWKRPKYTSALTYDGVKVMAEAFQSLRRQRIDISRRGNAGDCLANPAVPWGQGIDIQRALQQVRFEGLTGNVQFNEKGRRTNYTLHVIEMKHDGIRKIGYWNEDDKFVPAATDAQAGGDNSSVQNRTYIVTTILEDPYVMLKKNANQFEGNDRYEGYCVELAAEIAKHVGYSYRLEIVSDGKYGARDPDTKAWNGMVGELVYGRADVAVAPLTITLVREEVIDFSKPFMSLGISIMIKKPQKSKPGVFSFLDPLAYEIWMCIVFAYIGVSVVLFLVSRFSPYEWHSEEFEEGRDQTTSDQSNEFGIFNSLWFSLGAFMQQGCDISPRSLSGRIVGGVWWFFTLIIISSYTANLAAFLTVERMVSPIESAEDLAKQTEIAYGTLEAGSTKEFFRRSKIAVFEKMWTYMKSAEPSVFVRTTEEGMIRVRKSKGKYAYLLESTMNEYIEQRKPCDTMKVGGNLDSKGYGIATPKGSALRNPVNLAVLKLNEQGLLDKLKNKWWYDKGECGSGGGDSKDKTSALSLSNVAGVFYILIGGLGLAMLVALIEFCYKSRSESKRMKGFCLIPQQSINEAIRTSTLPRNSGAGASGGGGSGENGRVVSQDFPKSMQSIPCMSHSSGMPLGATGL
# UniProt P15149: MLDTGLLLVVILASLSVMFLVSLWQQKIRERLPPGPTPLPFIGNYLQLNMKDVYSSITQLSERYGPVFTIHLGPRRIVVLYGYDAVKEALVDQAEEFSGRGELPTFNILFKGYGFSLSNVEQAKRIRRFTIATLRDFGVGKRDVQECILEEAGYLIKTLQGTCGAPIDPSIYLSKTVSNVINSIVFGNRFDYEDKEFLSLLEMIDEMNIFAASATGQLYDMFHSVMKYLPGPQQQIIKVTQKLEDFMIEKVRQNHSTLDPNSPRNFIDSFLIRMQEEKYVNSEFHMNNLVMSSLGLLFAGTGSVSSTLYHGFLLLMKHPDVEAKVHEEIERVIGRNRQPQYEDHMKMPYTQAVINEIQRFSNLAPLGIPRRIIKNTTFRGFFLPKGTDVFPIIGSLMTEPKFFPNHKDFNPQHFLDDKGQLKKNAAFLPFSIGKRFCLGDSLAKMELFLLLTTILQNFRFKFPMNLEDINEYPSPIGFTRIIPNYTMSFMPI
# UniProt P10634: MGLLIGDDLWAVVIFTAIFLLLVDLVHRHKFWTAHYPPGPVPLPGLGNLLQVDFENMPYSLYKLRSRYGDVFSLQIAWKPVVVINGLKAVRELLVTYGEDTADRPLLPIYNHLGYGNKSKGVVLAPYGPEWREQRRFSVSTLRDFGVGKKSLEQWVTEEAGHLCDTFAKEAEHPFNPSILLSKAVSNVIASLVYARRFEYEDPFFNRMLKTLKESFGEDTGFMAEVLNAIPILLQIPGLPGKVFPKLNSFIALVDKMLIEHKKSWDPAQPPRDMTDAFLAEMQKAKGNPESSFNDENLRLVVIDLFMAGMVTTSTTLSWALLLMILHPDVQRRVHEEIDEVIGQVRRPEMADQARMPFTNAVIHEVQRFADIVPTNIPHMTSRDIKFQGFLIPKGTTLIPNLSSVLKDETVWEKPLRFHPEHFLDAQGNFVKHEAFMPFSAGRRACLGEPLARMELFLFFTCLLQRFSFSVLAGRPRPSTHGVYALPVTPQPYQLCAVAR
# UniProt P70536: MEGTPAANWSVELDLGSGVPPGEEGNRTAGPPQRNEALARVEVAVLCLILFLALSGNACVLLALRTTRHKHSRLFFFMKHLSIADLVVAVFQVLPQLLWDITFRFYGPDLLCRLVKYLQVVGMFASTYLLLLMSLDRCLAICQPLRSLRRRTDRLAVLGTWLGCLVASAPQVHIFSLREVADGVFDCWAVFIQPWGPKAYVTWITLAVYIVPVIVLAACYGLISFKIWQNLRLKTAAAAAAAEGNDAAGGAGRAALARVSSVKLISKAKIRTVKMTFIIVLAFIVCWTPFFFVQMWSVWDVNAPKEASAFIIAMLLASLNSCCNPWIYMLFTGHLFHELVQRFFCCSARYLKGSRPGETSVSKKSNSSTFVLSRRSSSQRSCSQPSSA
# UniProt Q9QYN8: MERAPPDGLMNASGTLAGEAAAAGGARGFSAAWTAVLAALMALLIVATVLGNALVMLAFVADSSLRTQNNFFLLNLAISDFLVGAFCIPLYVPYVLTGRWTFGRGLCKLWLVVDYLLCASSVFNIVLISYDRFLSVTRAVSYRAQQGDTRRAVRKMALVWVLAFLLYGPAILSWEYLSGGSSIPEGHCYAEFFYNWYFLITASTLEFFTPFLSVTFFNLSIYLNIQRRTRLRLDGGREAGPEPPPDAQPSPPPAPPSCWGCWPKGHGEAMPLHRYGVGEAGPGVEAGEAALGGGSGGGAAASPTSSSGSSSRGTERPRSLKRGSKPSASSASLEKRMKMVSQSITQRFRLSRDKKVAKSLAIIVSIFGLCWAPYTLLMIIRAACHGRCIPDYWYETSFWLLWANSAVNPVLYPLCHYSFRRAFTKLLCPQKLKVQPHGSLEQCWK
# UniProt P43140: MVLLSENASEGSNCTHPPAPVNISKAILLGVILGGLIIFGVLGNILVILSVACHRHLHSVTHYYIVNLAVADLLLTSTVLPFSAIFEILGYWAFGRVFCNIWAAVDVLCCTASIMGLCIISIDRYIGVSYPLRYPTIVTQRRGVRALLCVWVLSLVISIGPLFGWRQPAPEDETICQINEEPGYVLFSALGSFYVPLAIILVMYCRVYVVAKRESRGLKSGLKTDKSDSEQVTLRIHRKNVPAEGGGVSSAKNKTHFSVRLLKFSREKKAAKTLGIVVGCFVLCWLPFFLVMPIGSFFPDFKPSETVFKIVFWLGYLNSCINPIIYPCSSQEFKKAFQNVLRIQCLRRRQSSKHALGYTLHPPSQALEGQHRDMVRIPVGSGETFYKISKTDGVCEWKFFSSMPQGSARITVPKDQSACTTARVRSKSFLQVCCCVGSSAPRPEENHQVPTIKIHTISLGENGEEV
# UniProt P37238, whole entry, looked up: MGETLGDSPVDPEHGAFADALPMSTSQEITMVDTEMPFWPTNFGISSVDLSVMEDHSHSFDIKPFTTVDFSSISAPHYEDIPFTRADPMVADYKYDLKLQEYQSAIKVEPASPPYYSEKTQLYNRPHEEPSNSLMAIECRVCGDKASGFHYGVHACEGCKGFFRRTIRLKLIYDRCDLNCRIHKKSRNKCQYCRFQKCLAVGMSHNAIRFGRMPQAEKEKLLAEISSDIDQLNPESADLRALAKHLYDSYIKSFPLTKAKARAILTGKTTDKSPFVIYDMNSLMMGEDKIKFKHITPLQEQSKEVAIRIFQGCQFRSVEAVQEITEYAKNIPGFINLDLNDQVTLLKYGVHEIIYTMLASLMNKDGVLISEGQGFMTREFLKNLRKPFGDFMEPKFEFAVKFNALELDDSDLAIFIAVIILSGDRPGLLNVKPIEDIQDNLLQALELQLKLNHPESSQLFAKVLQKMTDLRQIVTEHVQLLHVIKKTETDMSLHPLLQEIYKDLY
# UniProt P42574: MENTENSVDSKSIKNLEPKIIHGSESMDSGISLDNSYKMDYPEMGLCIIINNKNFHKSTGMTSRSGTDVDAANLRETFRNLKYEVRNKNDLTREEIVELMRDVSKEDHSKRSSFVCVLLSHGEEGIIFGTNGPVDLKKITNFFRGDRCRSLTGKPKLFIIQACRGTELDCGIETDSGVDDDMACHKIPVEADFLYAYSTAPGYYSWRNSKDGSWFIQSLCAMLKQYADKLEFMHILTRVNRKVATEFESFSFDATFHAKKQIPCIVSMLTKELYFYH
# UniProt P22303: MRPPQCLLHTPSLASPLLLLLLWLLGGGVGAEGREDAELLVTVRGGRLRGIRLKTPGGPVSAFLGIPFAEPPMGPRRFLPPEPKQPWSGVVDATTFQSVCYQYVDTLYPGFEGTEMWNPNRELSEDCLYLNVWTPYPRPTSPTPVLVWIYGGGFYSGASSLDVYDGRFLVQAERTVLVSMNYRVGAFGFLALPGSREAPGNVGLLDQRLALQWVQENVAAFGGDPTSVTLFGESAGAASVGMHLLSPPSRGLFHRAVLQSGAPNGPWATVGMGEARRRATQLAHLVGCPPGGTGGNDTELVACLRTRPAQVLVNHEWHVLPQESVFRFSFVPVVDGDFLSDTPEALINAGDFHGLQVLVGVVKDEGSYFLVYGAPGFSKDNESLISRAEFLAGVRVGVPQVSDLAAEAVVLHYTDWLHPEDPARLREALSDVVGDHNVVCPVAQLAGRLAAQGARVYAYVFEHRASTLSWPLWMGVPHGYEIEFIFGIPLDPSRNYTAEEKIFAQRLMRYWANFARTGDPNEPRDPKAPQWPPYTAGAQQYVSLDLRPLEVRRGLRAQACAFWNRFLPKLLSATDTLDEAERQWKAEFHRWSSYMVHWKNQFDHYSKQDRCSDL
# For some assays here: The source calls these results inconclusive, neither active nor inactive. For some assays here: Where the call is inconclusive, the potency comes from a doubtful curve fit. For some assays here: Inconclusive means that the source gave no clear call. Such entries were picked first, then a sample of the others. Activity calls are given as the source filed them. The calls were made as follows: active = hit-call score of the fitted dose curve at least 0.9, where 1 is the maximum; inconclusive = response in the unintended direction; inactive = score below 0.9.
# How the values were obtained:
# [1] = biological target: rat Glutamate, AMPA Site (AMPA), Gria1 (gene 50592) (UniProt P19490); experiment: NVS_LGIC_rAMPA: NovaScreen (NVS) Ligand-Gated Ion Channel Assay for rat Glutamate, AMPA Site (AMPA) (AID 2283324)
# In short: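 Screening at 25 uM in duplicate preceded concentration series reaching 50 uM for qualifying compounds. Radioligand displacement on rat forebrain membranes, 1 h, filter-based scintillation readout; reduced binding relative to DMSO.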
# [2] = VALA_TUBIPS_Agonist_TubuleLength: VALA Sciences human iPS-derived Endothelial Tubule Formation (TUBIPS) Agonism Assay (AID 2284311)
# In short: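 Agonist-mode readout is the gain in imaged tubule length versus DMSO baseline. It was measured by fluorescence high-content imaging 72 h after dosing human iPSC-derived endothelial cells.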
# [3] = VALA_TUBIPS_Antagonist_TubuleLength: VALA Sciences human iPS-derived Endothelial Tubule Formation (TUBIPS) Antagonist Assay (AID 2284313)
# In short: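 Tubule length was quantified by high-content imaging of CD31- and nuclear-stained cells, with 0.1% DMSO as neutral and 100 uM suramin as inhibition control. Compounds were applied for 3 days, in 10 ng/ml VEGF, to cultures pre-grown 3 days.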
# [4] = VALA_MIGHUV2_WoundArea: VALA Sciences human Umbilical Vein Endothelial Cell Migration (MIGHUV) Assay, Area of Scratch Wound after Recovery (AID 2284316)
# In short: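 Wound-area endpoint read by fluorescence imaging of Hoechst-stained nuclei after a 24 h recovery period following scratch of HUVEC monolayers (9000 cells/well). Chemicals dosed within 30 min post-scratch, triplicate 6-point series, 0.1% DMSO vehicle; Cytochalasin D positive control.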
# [5] = VALA_TUBIPS_Agonist_CellCount: Viability Assessment in the VALA Sciences human iPS-derived Endothelial Tubule Formation (TUBIPS) Agonism Assay (AID 2284338)
# [6] = biological target: rat CYP2A2, Cyp2a2 (gene 24895) (UniProt P15149); experiment: NVS_ADME_rCYP2A2: NovaScreen (NVS) CYP450-related Enzyme Activity (ADME) Assay for rat CYP2A2 (AID 2283116)
# In short: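 Compounds first tested in duplicate at 10 uM, then in singleton concentration series up to 20 uM when over threshold. Activity of the recombinant enzyme read by fluorescence at 0.2 h, normalised to acetonitrile vehicle.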
# [7] = biological target: rat CYP2D2, Cyp2d26 (gene 25053) (UniProt P10634); experiment: NVS_ADME_rCYP2D2: NovaScreen (NVS) CYP450-related Enzyme Activity (ADME) Assay for rat CYP2D2 (AID 2283124)
# In short: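 Single-concentration duplicate testing at 10 uM, followed by concentration-response (top 20 uM) for chemicals passing threshold. Enzyme activity of the recombinant rat isoform measured by fluorescence after 0.75 h, acetonitrile as baseline.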
# [8] = biological target: human SRC Proto-Oncogene, Non-receptor Tyrosine Kinase (SRC), SRC (gene 6714) (UniProt P12931); experiment: NVS_ENZ_hSRC: NovaScreen (NVS) Enzymatic Assay for human SRC Proto-Oncogene, Non-receptor Tyrosine Kinase (SRC) (AID 2283223)
# In short: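 Compounds passing 30% inhibition at 25 uM (duplicate) were titrated to a top concentration of 50 uM. Enzyme activity read by fluorescence with mobility-shift substrate/product separation after 1 h; DMSO baseline.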
# [9] = biological target: Sodium channel protein type 1 subunit alpha (Rattus norvegicus) (UniProt P04774); experiment: NVS_IC_rNaCh_site2: NovaScreen (NVS) Ion Channel Assay for rat Sodium Channel, Site 2 (NaCh) (AID 2283322);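 also: hit means loss of radioligand binding signal relative to DMSO so AC50 marks displacement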
# In short: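 Initial duplicate single-point testing at 25 uM, followed by concentration-response runs for actives. Binding of radioligand to rat forebrain membranes quantified after 1 h via filter-based radiodetection.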
# [10] = IUF_NPC2-5_cytotoxicity_120hr: Cytotoxicity Assessment at 120 hours in the Leibniz Research Institute for Environmental Medicine (IUF) Neural Progenitor Cell Migration and Differentiation Assay (NPC2-5) (AID 2284307);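 also: LDH released into supernatant as membrane damage marker via resorufin fluorescence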
# In short: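 Fluorescence (RFU) from LDH-driven resazurin reduction in medium supernatants measured loss of membrane integrity after 120 h of compound exposure of differentiating primary human neural progenitor spheres on an extracellular matrix.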
# [11] = biological target: rat Oxytocin Receptor (OXT), Oxtr (gene 25342) (UniProt P70536); experiment: NVS_GPCR_rOXT: NovaScreen (NVS) G Protein-Coupled Receptor Assay for rat Oxytocin Receptor (OXT) (AID 2283330)
# In short: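 Binding to rat uterine membrane receptor was followed by scintillation counting of filter-trapped radioligand after 1 h. A 25 uM duplicate single-point screen preceded concentration series with a top of 50 uM. Signal loss was analysed relative to DMSO.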
# [12] = biological target: Thyroid hormone receptor alpha (Rattus norvegicus) + Thyroid hormone receptor beta (Rattus norvegicus) (UniProt P18113+P63059); experiment: TOX21_TR_LUC_GH3_Agonist_Followup: Tox21 GH3 Thyroid Hormone Receptor Agonism Luciferase Follow-Up Assay (AID 2283939)
# In short: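 Agonist-mode confirmatory run: 15 concentrations (5 nM to 92 uM final) on GH3 rat pituitary cells, 24 h at 37C/5% CO2, T3 as positive control. Luminescence read with ONE-Glo after 30 min.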
# SERPINA7 (gene 6906) = experiment: CCTE_GLTED_hTBG: CCTE's human Thyroxine-binding Globulin (TBG) Inhibition Assay, Great Lakes Toxicology and Ecology Division (GLTED) Lab (AID 2284343);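 also: active chemicals lower fluorescence versus DMSO baseline by displacing probe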
# In short: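 Steps: combine TBG with chemical; incubate 2 hours so that disruptors release ANSA; record fluorescence (380 ex, 475 em). Loss of signal was fitted against DMSO controls.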
# [13] = biological target: rat Histamine Receptor (H3), Hrh3 (gene 85268) (UniProt Q9QYN8); experiment: NVS_GPCR_rH3: NovaScreen (NVS) G Protein-Coupled Receptor Assay for rat Histamine Receptor (H3) (AID 2283303)
# In short: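 Filter-binding radioligand competition on rat forebrain membranes, 1 h incubation; compounds screened at 25 µM in duplicate and followed in concentration series to 50 µM, loss of bound signal vs DMSO.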
# [14] = biological target: rat Adrenergic, Alpha 1A Receptor (Adra1A), Adra1a (gene 29412) (UniProt P43140); experiment: NVS_GPCR_rAdra1A: NovaScreen (NVS) G Protein-Coupled Receptor Assay for rat Adrenergic, Alpha 1A Receptor (Adra1A) (AID 2283296)
# In short: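 Filter radiodetection after 1 h competitive binding on CEC-pretreated rat cortical membranes. Duplicate single-point screening at 25 uM; active chemicals retested across concentration series.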
# [15] = Tanguay_ZF_120hpf_PFIN_legacy: (Legacy) Oregon State University Tanguay Lab 120 Hour Post-fertilization zebrafish Assay for Pectoral Fin Malformation (AID 2283648);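 also: each larva judged yes or no for fin defect by brightfield with dead larvae skipped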
# In short: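 Pectoral fin malformation was recorded as a binary endpoint at 120 hpf in wild-type Tropical 5D larvae, which had been dechorionated and exposed statically from 6 hpf at 28C in 0.64% DMSO. Dead embryos were excluded.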
# [16] = biological target: mouse Peroxisome Proliferator-activated Receptor gamma (PPARg), Pparg (gene 19016) (UniProt P37238); experiment: ATG_mPPARg_XSP1: Attagene TRANS-FACTORIAL Multi-Species (XSP1) HepG2 Assay for mouse Peroxisome Proliferator-activated Receptor gamma (PPARg) (AID 2283802)
# In short: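 Readout is reporter mRNA induction, measured by RT-PCR with 6-FAM labelling, HpaI digestion and capillary electrophoresis, 24 h post-dose relative to DMSO. Transient multi-reporter transfection of human HepG2 with mouse PPARg–GAL4 fusion; 3 nM 6-alpha-fluorotestosterone included.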
# [17] = biological target: human Epidermal Growth Factor Receptor (EGFR), EGFR (gene 1956) (UniProt P00533); experiment: NVS_ENZ_hEGFR: NovaScreen (NVS) Enzymatic Assay for human Epidermal Growth Factor Receptor (EGFR) (AID 2283151)
# In short: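 Cell-free kinase assay, fluorescence plus electrophoretic mobility shift separating substrate and product, read 1 hour after dosing; loss of signal vs DMSO. Duplicate screen at 25 uM, then concentration-response to 50 uM.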
# Caspase-3 (Homo sapiens) = Caspase-3 (Homo sapiens) (UniProt P42574); experiment: NVS_ENZ_hCASP3: NovaScreen (NVS) Enzymatic Assay for human Caspase 3 (CASP3) (AID 2283139)
# In short: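 Single-concentration screening at 25 uM in duplicate, with concentration-response follow-up to a 50 uM maximum for chemicals passing the threshold. Caspase-3 (human, E. coli-expressed) activity was read as substrate fluorescence after 1 h, with loss of signal relative to DMSO.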
# [18] = biological target: human Acetylcholinesterase (AChE), ACHE (gene 43) (UniProt P22303); experiment: NVS_ENZ_hAChE: NovaScreen (NVS) Enzymatic Assay for human Acetylcholinesterase (AChE) (AID 2283129)
# In short: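 Actives from a duplicate single-point screen (25 uM) were followed up in concentration series. Enzyme activity read by absorbance (colorimetric) 0.33 hour after dosing, cell-free, normalized to DMSO, with loss of signal scored.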
smiles,measurement,setting,value
c1ccc(N=Nc2ccccc2)cc1,AC50,[1],inconclusive: 0.169 µM
CC1=NNC(=O)N(/N=C/c2cccnc2)C1,AC50,[2],inconclusive: 50 µM
same,outcome,[3],inactive
same,outcome,[4],inactive
same,outcome,[5],inactive
N#Cc1c(Cl)cccc1Cl,AC50,[6],inconclusive: 10 µM
same,AC50,[7],inconclusive: 5.69 µM
same,AC50,[8],inconclusive: 25 µM
C[C@]12CC[C@@H](O)C[C@@H]1CC[C@@H]1[C@@H]2CC[C@]2(C)C(=O)CC[C@@H]12,AC50,[9],inconclusive: 0.217 µM
COC(=O)Nc1nc2ccccc2[nH]1,AC50,[10],inconclusive: 12.5 µM
Cc1cc(O)ccc1Cl,AC50,[11],inconclusive: 25 µM
same,outcome,[12],inactive
same,AC50,SERPINA7 (gene 6906),inconclusive: 0.0444 µM
Cc1ccccc1CO[C@@H]1C[C@@]2(C(C)C)CC[C@]1(C)O2,AC50,[13],inconclusive: 25 µM
C[Si](Cn1cncn1)(c1ccc(F)cc1)c1ccc(F)cc1,AC50,[14],active: 16.9 µM
same,AC50,[15],active: 20.9 µM
CCCCOC(=O)c1ccccc1C(=O)OCc1ccccc1,AC50,[16],active: 9.86 µM
CCN(CC)N=O,outcome,[17],inactive
CC(C)=CC1C(C(=O)OCN2C(=O)C3=C(CCCC3)C2=O)C1(C)C (stereo not given),AC50,Caspase-3 (Homo sapiens),active: 18.1 µM
N#CN=C1SCCN1Cc1ccc(Cl)nc1,AC50,[18],active: 19.6 µM

# Exported bar-delimited: entries from further up.
smiles | measurement | setting | value
c1ccc(N=Nc2ccccc2)cc1 | AC50 | [1] | inconclusive: 0.169 µM
N#CN=C1SCCN1Cc1ccc(Cl)nc1 | AC50 | [18] | active: 19.6 µM
